Source: the supplement of paper PMC12889115
The list shows a part of the results. Values are raw readings; no control value is given beside them.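 In the initial screen, polymyxin B was used at a concentration that permeabilizes Salmonella's outer membrane but not its inner membrane. Maximum growth was set by DMSO wells with or without polymyxin B. Since plates varied, data were ranked per plate, and compounds giving the lowest OD600 advanced as hits.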

Test system: Salmonella enterica serovar Typhimurium SL1344
Experiment: bacterial growth OD600 after 18 h with compound and polymyxin B; higher = more bacterial growth (less inhibition)
Settings: 50 µM, Mueller-Hinton broth

SMILES: CC(=O)c1cc(CN2CCCCC2C(=O)Nc2ccc(-n3cccn3)cc2)cs1 (stereo unspecified)
- bacterial growth OD600 (polymyxin B 1 µg/mL): 0.986

SMILES: Cc1c(C(C)NC(=O)c2ccc3c(c2)OCCO3)cnn1-c1ccccn1 (stereo unspecified)
- bacterial growth OD600 (polymyxin B 1 µg/mL): 0.963

SMILES: COc1ccc(S(=O)(=O)NCC2CCCN(Cc3cnc(SC)nc3)C2)cc1 (stereo unspecified)
- bacterial growth OD600 (polymyxin B 1 µg/mL): 0.772

SMILES: CCN1CCN(C(=O)c2cnn(-c3nccc(-c4cccc(OC)c4)n3)c2C2CC2)CC1
- bacterial growth OD600 (polymyxin B 0.75 µg/mL): 0.925

SMILES: COc1ccc(C(=O)NC2CC(=O)N(CCCc3ccccc3)C2)cc1 (stereo unspecified)
- bacterial growth OD600 (polymyxin B 1 µg/mL): 0.922

SMILES: O=C(c1cn(Cc2ccccc2Cl)nn1)N1CCSCC1
- bacterial growth OD600 (polymyxin B 1 µg/mL): 1.1

SMILES: COc1cccc(CCNC2CCN(c3ccc(NC(=O)c4ccc(C)cc4C)cc3)CC2)c1
- bacterial growth OD600 (polymyxin B 0.75 µg/mL): 0.807

SMILES: COC(=O)c1cccc(-c2cc(Cl)c3c(c2)CC(CNC(=O)Cn2nc(C)nc2C)O3)c1 (stereo unspecified)
- bacterial growth OD600 (polymyxin B 0.75 µg/mL): 0.807

SMILES: Cc1ccc(OCc2cc(C(=O)NCCN3CCCCC3=O)no2)cn1
- bacterial growth OD600 (polymyxin B 1 µg/mL): 0.996

SMILES: O=C(NCC1(O)CCCCC1)c1cc(COc2cccc(F)c2)[nH]n1
- bacterial growth OD600 (polymyxin B 1 µg/mL): 1.01

SMILES: COc1cc2c(cc1CN1CC[C@@H](N3CCN(c4ccccn4)CC3)[C@H](O)C1)OCO2
- bacterial growth OD600 (polymyxin B 1 µg/mL): 0.869

SMILES: CN(C)S(=O)(=O)Nc1ccc(N2CCC(NCc3ccc(OC(F)(F)F)cc3)CC2)cc1
- bacterial growth OD600 (polymyxin B 0.75 µg/mL): 0.751

SMILES: O=C(C1CCCN(c2nc3nonc3nc2N2CCSCC2)C1)N1CCOCC1 (stereo unspecified)
- bacterial growth OD600 (polymyxin B 0.75 µg/mL): 0.795

SMILES: CSc1ccccc1C(=O)NCc1c(C)ncc2c1CCN(C(=O)c1ccc(F)cc1Cl)C2
- bacterial growth OD600 (polymyxin B 0.75 µg/mL): 0.782

SMILES: COCc1ccc(C(=O)NCc2c(C)ncc3c2CCN(C(=O)c2cccc(C(F)(F)F)c2)C3)o1
- bacterial growth OD600 (polymyxin B 0.75 µg/mL): 0.831

SMILES: O=C(NCCc1ccncc1)c1coc(COc2ccc(F)cc2)n1
- bacterial growth OD600 (polymyxin B 1 µg/mL): 0.932

SMILES: COC(=O)CCCNC(=O)c1ccc(OC2CCN(S(C)(=O)=O)CC2)c(Cl)c1
- bacterial growth OD600 (polymyxin B 1 µg/mL): 1

SMILES: OCCC1CN(Cc2c(F)cccc2F)CCN1C1CCCC1 (stereo unspecified)
- bacterial growth OD600 (polymyxin B 1 µg/mL): 1.04

SMILES: Cc1cc2nc(N3CCC(NCc4csc(C(C)C)n4)CC3)nc(C)c2cc1C
- bacterial growth OD600 (polymyxin B 0.75 µg/mL): 0.799

SMILES: O=C1CCC(C(=O)N2CCC(Cc3ccc(F)cc3)CC2)CN1CCN1CCOCC1 (stereo unspecified)
- bacterial growth OD600 (polymyxin B 1 µg/mL): 1.09

SMILES: O=C(Cn1nnnc1CN1CCCC1)N1CCN(C2CCc3ccccc3C2)CC1 (stereo unspecified)
- bacterial growth OD600 (polymyxin B 0.75 µg/mL): 0.825

SMILES: COc1ccccc1CCc1nc2ccccc2n1C1CCN(C(=O)C2CCC2)CC1
- bacterial growth OD600 (polymyxin B 0.75 µg/mL): 0.729

SMILES: COc1ccc(CN2CCN(Cc3ccc(C)cc3)C(CCO)C2)c(OC)c1 (stereo unspecified)
- bacterial growth OD600 (polymyxin B 1 µg/mL): 0.757

SMILES: CC(C)(C)CNc1ccc(C(=O)N2CCC(Oc3cccnc3)CC2)cn1
- bacterial growth OD600 (polymyxin B 1 µg/mL): 0.869

SMILES: COc1cc(OC)c(OC)cc1CN1CCC(CCC(=O)NCC2CCCO2)CC1 (stereo unspecified)
- bacterial growth OD600 (polymyxin B 0.75 µg/mL): 0.989

SMILES: CCCc1cc(CNC(=O)c2ccc(NC(C)(C)C)nc2)on1
- bacterial growth OD600 (polymyxin B 1 µg/mL): 0.907

SMILES: O=C(c1cccc(F)c1)N1CCC(C2(Cc3ccc(F)cc3)NC(=O)N(CC3CC3)C2=O)CC1 (stereo unspecified)
- bacterial growth OD600 (polymyxin B 0.75 µg/mL): 0.848

SMILES: O=C(CCOc1ccccc1)Nc1cnn(CC(=O)N2CCNC(=O)C2c2cccc(F)c2)c1 (stereo unspecified)
- bacterial growth OD600 (polymyxin B 0.75 µg/mL): 0.85

SMILES: COc1ccc(CCN2CCCC(CN(C)Cc3cnc(SC)nc3)C2)cc1 (stereo unspecified)
- bacterial growth OD600 (polymyxin B 1 µg/mL): 0.716

SMILES: Cc1nc(C(=O)NCc2cccnc2N(C)CCc2ccccn2)cs1
- bacterial growth OD600 (polymyxin B 1 µg/mL): 0.914

SMILES: COc1ccc(CN2CCN(C3CCN(c4ccccc4)CC3)CC2CCO)cc1C (stereo unspecified)
- bacterial growth OD600 (polymyxin B 1 µg/mL): 0.894
